PubChem BioAssay AID1259424 | University of Nebraska Medical Center | 2018
Shown is a random part of about 14,000 reagents tested. 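Higher correlation or smaller distance means closer resemblance to KSR1 loss; control wells, including KSR1 knockdowns, recur on many plates.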 A reagent listed more than once was tested more than once; the source does not tell the runs apart. Further read-outs or replicates are left out here. Reagent sequences are not shown. Not given: the time to read-out.

Purpose: 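Seek colon cancer survival genes behaving like KSR1, using a six-gene signature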 (primary screen)
Cells: human HCT116 colon cancer cells
Reagent: siRNA pool against human genes, 50 nM
Read-out: 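Six signature mRNAs by branched-DNA multiplex assay, scaled to two housekeeping genes and non-targeting median, log2; matched to mean KSR1 knockdown profile by Pearson correlation and euclidean distance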
Reading the numbers: mean correlation with KSR1 profile and KSR1 correlation: higher = expression change more like KSR1 knockdown; mean distance from KSR1 profile: higher = expression change less like KSR1 knockdown

gene,mean correlation with KSR1 profile,mean distance from KSR1 profile,"KSR1 correlation, replicate 1","KSR1 correlation, replicate 2"
DDX17,-0.343,1.97,-0.219,-0.535
GRK5,0.682,1.38,0.855,0.675
GRK5,0.663,1.27,0.659,0.441
PI4KA,0.804,3.77,0.731,0.748
TNN,-0.122,1.83,-0.242,0.114
SRY,0.739,2.6,0.695,0.527
HM13,0.609,2.16,0.407,0.627
TSPAN7,-0.533,2.58,-0.412,-0.263
GPR160,0.84,1.72,0.776,0.822
TCEAL7,-0.376,1.82,-0.111,-0.774
CELF2,0.448,2.49,0.377,0.583
BECN1,0.00249,2.51,0.0676,0.15
ZNF347,0.213,1.64,0.388,0.227
CIC,-0.653,2.37,-0.753,-0.388
RBP4,0.0813,2.04,0.235,0.0132
OR1E2,0.938,1.34,0.977,0.952
MRPL22,0.285,1.76,0.0349,0.0345

Limited to “KSR1 correlation, replicate 2”, for 4 of the entries above:
CIC	-0.388
RBP4	0.0132
OR1E2	0.952
MRPL22	0.0345

The results go on.
gene,mean correlation with KSR1 profile,mean distance from KSR1 profile,"KSR1 correlation, replicate 1","KSR1 correlation, replicate 2"
SUSD4,-0.294,3.54,-0.265,-0.425
RPS14,-0.465,2.48,-0.571,-0.672
PLEKHA6,-0.528,3.5,-0.256,-0.629
CUTALP,-0.156,3.61,-0.278,-0.279
PTGER2,0.564,2.64,0.522,0.733
TYRP1,0.119,1.85,0.169,0.085
DLEC1,0.26,2.98,0.196,0.247
AKAP3,0.409,2.42,0.551,0.432
XRCC5,-0.269,2.25,-0.369,-0.283
U2SURP,-0.0165,3.75,-0.0418,-0.135
GRN,-0.22,2.4,-0.372,-0.32
HS6ST1,-0.0348,1.04,0.225,0.286
NDUFA5,0.26,1.4,0.199,0.179
H19,0.383,1.26,0.356,0.307
ZNF317,0.272,2.67,0.12,0.41
PADI3,-0.269,2.88,-0.32,-0.31
SLC13A1,0.448,1.03,0.371,0.368
NARF,0.107,2.96,-0.113,-0.413
NDUFC1,0.537,1.62,0.675,0.457
AOC2,-0.388,3.37,-0.23,-0.5
KIAA1191,0.23,1.52,0.18,-0.0251
IL18BP,0.119,1.41,0.0836,0.414
B9D1,-0.44,1.8,-0.606,-0.719
TMEM59L,-0.216,3.39,-0.109,-0.302
ZBED1,0.0856,1.61,0.236,0.269
CD34,0.577,3.01,0.551,0.642
HSP90AA1,0.869,1.77,0.821,0.824
BKGD,0.0426,1.09,-0.241,-0.401
PDCD7,-0.391,4.19,-0.227,-0.457
HOXD1,0.85,0.919,0.91,0.836
EREG,-0.346,2.6,-0.236,-0.388
CD48,0.304,1.97,0.297,0.316
GABRA3,0.055,1.68,0.13,-0.233
